Inconclusive results, whose numbers are uncertain, are shown with a selection of clear calls. For some assays here: Where the call is inconclusive, the potency comes from a doubtful curve fit. Active and inactive are the calls of the source. Calls come from the whole dose curve; as a rule, active = well fitted curve in the direction sought with a large enough effect; inconclusive = small, poorly fitted or top-dose-only effect, or another doubt; inactive = no such curve, though single readings can be large; an effect the other way counts as inactive or inconclusive.
What was measured:
[1] = Quantitative High-Throughput drug screen in 47 multiple myeloma cell lines against the NCATS MIPE library collection: KMS20_JCRB cell viability assay (AID 1918973); conditions: CellTiter-Glo ATP, 48 h; viability (% of DMSO): at 45.8 µM (top of the series); note: nearly all actives have a fitted effect of over 45% in size;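 for viability (% of DMSO): 100% = DMSO only wells and 0% = media only wells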
Summary of the method: (§1)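 qHTS of the MIPE 4.0 collection: 500 myeloma cells/well, 48 h drug exposure at 37C in 5% CO2, then CellTiter-Glo for 5 min at room temperature before luminescence reading.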

[2] = Quantitative High-Throughput drug screen in 47 multiple myeloma cell lines against the NCATS MIPE library collection: KMS21BM_JCRB cell viability assay (AID 1918974); conditions: ATP luminescence, 48 h; viability: at 45.8 µM (top of the series) unless noted
Summary of the method: as §1

[3] = Quantitative High-Throughput drug screen in 47 multiple myeloma cell lines against the NCATS MIPE library collection: MMM1_PLB cell viability assay (AID 1918976); note: nearly all actives have a fitted effect of over 35% in size
Summary of the method: (§2)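 Inhibition of viability over 48 h was scored by ATP content (CellTiter-Glo) in 500-cell wells. Zero and full viability were defined by media-only and DMSO-only wells.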

[4] = Quantitative High-Throughput drug screen in 47 multiple myeloma cell lines against the NCATS MIPE library collection: OCIMY1_PLB cell viability assay (AID 1918979); conditions: OCI-MY1 myeloma viability, CellTiter-Glo ATP, 48 h; viability: at 45.8 µM (top of the series) unless noted; note: nearly all actives have a fitted effect of over 35% in size;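 for viability: 100% = DMSO-only wells and 0% = cell-free media-only wells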
Summary of the method: as §2

[5] = Quantitative High-Throughput drug screen in 47 multiple myeloma cell lines against the NCATS MIPE library collection: MM1R_ATCC cell viability assay (AID 1918981); note: nearly all actives have a fitted effect of over 35% in size
Summary of the method: as §2

[6] = Quantitative High-Throughput drug screen in 47 multiple myeloma cell lines against the NCATS MIPE library collection: LP1_DSMZ cell viability assay (AID 1918982); conditions: LP1 myeloma viability, CellTiter-Glo ATP luminescence, 48 h; viability (% of control): at 45.8 µM (top of the series); note: nearly all actives have a fitted effect of over 35% in size
Summary of the method: as §2

[7] = Quantitative High-Throughput drug screen in 47 multiple myeloma cell lines against the NCATS MIPE library collection: L363_DSMZ cell viability assay (AID 1918984); conditions: L363 myeloma viability, CellTiter-Glo ATP luminescence, 48 h; viability (% of control): at 45.8 µM (top of the series); note: nearly all actives have a fitted effect of over 40% in size
Summary of the method: as §2

[8] = Quantitative High-Throughput drug screen in 47 multiple myeloma cell lines against the NCATS MIPE library collection: KMS34_JCRB cell viability assay (AID 1918985); conditions: KMS34 myeloma viability, CellTiter-Glo ATP luminescence, 48 h; viability, percent of control: at 45.8 µM (top of the series); note: nearly all actives have a fitted effect of over 40% in size;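 for viability, percent of control: 100% = DMSO-only wells and 0% = media-only wells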
Summary of the method: as §2

[9] = Quantitative High-Throughput drug screen in 47 multiple myeloma cell lines against the NCATS MIPE library collection: OCIMY5_PLB cell viability assay (AID 1918988); conditions: OCI-MY5 myeloma viability, ATP luminescence, 48 h; viability, % of control: at 45.8 µM (top of the series); note: nearly all actives have a fitted effect of over 65% in size;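 for viability, % of control: 100% = DMSO-treated wells and 0% = wells with media alone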
Summary of the method: as §2

[10] = Quantitative High-Throughput drug screen in 47 multiple myeloma cell lines against the NCATS MIPE library collection: U266_ATCC cell viability assay (AID 1919864); conditions: U266 myeloma viability, CellTiter-Glo ATP luminescence, 48 h; viability (% of DMSO control): at 45.8 µM (top of the series); note: nearly all actives have a fitted effect of over 35% in size;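 for viability (% of DMSO control): 0% = media-only wells without cells and 100% = DMSO-only wells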
Summary of the method: as §2

[11] = Quantitative High-Throughput drug screen in 47 multiple myeloma cell lines against the NCATS MIPE library collection: MOLP8_DSMZ cell viability assay (AID 1918977); conditions: MOLP8 myeloma viability, CellTiter-Glo ATP luminescence, 48 h; viability (% of control): at 45.8 µM (top of the series); note: nearly all actives have a fitted effect of over 45% in size;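 for viability (% of control): 100% = DMSO-only wells and 0% = media-only wells without cells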
Summary of the method: as §2

[12] = Quantitative High-Throughput drug screen in 47 multiple myeloma cell lines against the NCATS MIPE library collection: KMS28PE_JCRB cell viability assay (AID 1918983); note: nearly all actives have a fitted effect of over 35% in size
Summary of the method: as §2

[13] = Quantitative High-Throughput drug screen in 47 multiple myeloma cell lines against the NCATS MIPE library collection: SKMM1_PLB cell viability assay (AID 1919863); conditions: SKMM1 myeloma viability, CellTiter-Glo ATP, 48 h; viability: stronger effect = lower value; note: nearly all actives have a fitted effect of over 35% in size
Summary of the method: as §2

[14] = Quantitative High-Throughput drug screen in 47 multiple myeloma cell lines against the NCATS MIPE library collection: XG6_PLB cell viability assay (AID 1919865); conditions: XG6 myeloma viability, CellTiter-Glo ATP luminescence, 48 h; viability (% of control): at 45.8 µM (top of the series); note: nearly all actives have a fitted effect of over 40% in size;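 for viability (% of control): 100% = DMSO-only wells and 0% = media-only wells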
Summary of the method: as §2

[15] = Quantitative High-Throughput drug screen in 47 multiple myeloma cell lines against the NCATS MIPE library collection: XG1_PLB cell viability assay (AID 1919866); conditions: CellTiter-Glo ATP, 48 h; viability: at 45.8 µM (top of the series); note: nearly all actives have a fitted effect of over 35% in size
Summary of the method: as §2

[16] = Quantitative High-Throughput drug screen in 47 multiple myeloma cell lines against the NCATS MIPE library collection: MM1S_ATCC cell viability assay (AID 1918980); note: nearly all actives have a fitted effect of over 45% in size;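 for viability (% of control): 100% = wells with DMSO only and 0% = wells with media only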
Summary of the method: as §2

[17] = Quantitative High-Throughput drug screen in 47 multiple myeloma cell lines against the NCATS MIPE library collection: OCIMY7_PLB cell viability assay (AID 1918987); conditions: OCI-MY7 myeloma viability, CellTiter-Glo ATP, 48 h; viability (% of DMSO): at 45.8 µM (top of the series); note: nearly all actives have a fitted effect of over 65% in size
Summary of the method: as §2

[18] = Quantitative High-Throughput drug screen in 47 multiple myeloma cell lines against the NCATS MIPE library collection: NCIH929_DSMZ cell viability assay (AID 1918978); note: nearly all actives have a fitted effect of over 35% in size
Summary of the method: as §2

[19] = Quantitative High-Throughput drug screen in 47 multiple myeloma cell lines against the NCATS MIPE library collection: OPM1_PLB cell viability assay (AID 1918989); note: nearly all actives have a fitted effect of over 40% in size;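 for viability (% of control): 100% = DMSO-only wells and 0% = media-only wells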
Summary of the method: as §2
Potency is the fitted concentration of half-maximal effect.

## CCOC(=O)C1=C(C)NC(=S)NC1c1cccc(O)c1 (stereo not given)
[1]
  Potency: inconclusive: 0.0372 µM [cytotoxic, full curve]
[2]
  Potency: inconclusive: 0.418 µM [cytotoxic, full curve, poor fit]
[3]
  Potency: inconclusive: 0.0132 µM [rising, full curve, poor fit]
[4]
  Potency: inconclusive: 0.418 µM [cytotoxic, full curve]
[5]
  Potency: active: 0.0296 µM
[6]
  Potency: inconclusive: 0.148 µM [cytotoxic, full curve]
[7]
  Potency: inconclusive: 0.105 µM [cytotoxic, full curve]
[8]
  Potency: active: 0.0833 µM
[9]
  Potency: active: 0.0235 µM
[10]
  Potency: inactive

## O=C(O)[C@H](Cc1c[nH]c2ccccc12)N1C(=O)c2ccccc2C1=O
[1]
  Potency: inactive
[2]
  Potency: inactive
[3]
  Potency: inconclusive: 0.0136 µM [rising, full curve, poor fit]
[11]
  Potency: inactive
[4]
  Potency: inactive
[5]
  Potency: inconclusive: 0.0021 µM [rising, full curve, poor fit]
[12]
  Potency: inactive
[7]
  Potency: inconclusive: 0.0762 µM [rising, full curve, poor fit]
[9]
  Potency: inactive
[13]
  viability: inactive: 111%
[10]
  Potency: inconclusive: 54 µM [cytotoxic, single point]
[14]
  Potency: inconclusive: 48.1 µM [cytotoxic, single point]
[15]
  Potency: inconclusive: 67.9 µM [cytotoxic, single point]

## Fc1ccc(Cl)cc1-c1nc(Nc2ccncc2)c2nccnc2n1
[1]
  Potency: inconclusive: 0.332 µM [cytotoxic, full curve, poor fit]
[2]
  Potency: inconclusive: 18.7 µM [rising, partial curve, poor fit]
[3]
  Potency: inconclusive: 1.32 µM [cytotoxic, full curve, poor fit]
[11]
  Potency: inconclusive: 14.8 µM [cytotoxic, partial curve, poor fit]
[4]
  Potency: inconclusive: 18.7 µM [cytotoxic, single point]
[16]
  Potency: inactive
[6]
  Potency: inconclusive: 33.2 µM [cytotoxic, single point]
[12]
  Potency: inconclusive: 14.8 µM [cytotoxic, partial curve, poor fit]
[7]
  Potency: inconclusive: 7.43 µM [cytotoxic, partial curve, poor fit]
[17]
  Potency: inactive
[9]
  Potency: inconclusive: 20.9 µM [cytotoxic, partial curve, poor fit]
[13]
  viability: inactive: 120%
[14]
  Potency: active: 3.32 µM
[15]
  Potency: inactive

## NCCCC(N)(C(=O)O)C(F)F (stereo not given)
[1]
  Potency: inconclusive: 0.0372 µM [cytotoxic, partial curve, poor fit]
[2]
  Potency: inconclusive: 37.2 µM [rising, partial curve, poor fit]
[11]
  Potency: inconclusive: 1.05 µM [cytotoxic, full curve, poor fit]
[18]
  Potency: active: 0.0526 µM
[4]
  Potency: inconclusive: 2.35 µM [cytotoxic, partial curve, poor fit]
[16]
  Potency: active: 0.105 µM
[6]
  Potency: active: 1.48 µM
[8]
  Potency: inconclusive: 1.66 µM [cytotoxic, full curve, poor fit]
[17]
  Potency: inconclusive: 20.9 µM [cytotoxic, partial curve, poor fit]
[19]
  Potency: inconclusive: 2.96 µM [cytotoxic, partial curve, poor fit]
[13]
  viability: inactive: 97%
[10]
  Potency: inconclusive: 2.64 µM [cytotoxic, full curve, poor fit]
[14]
  Potency: inconclusive: 26.4 µM [cytotoxic, single point]

## Fc1ccc(CNc2ncnc3ccc(F)cc23)cc1
[1]
  Potency: inconclusive: 2.09 µM [cytotoxic, full curve, poor fit]
[2]
  Potency: inconclusive: 29.6 µM [rising, partial curve, poor fit]
[3]
  Potency: active: 4.18 µM
[11]
  Potency: inconclusive: 1.18 µM [cytotoxic, partial curve, poor fit]
[16]
  Potency: active: 14.8 µM
[8]
  Potency: inconclusive: 5.9 µM [cytotoxic, partial curve, poor fit]
[17]
  Potency: inconclusive: 37.2 µM [cytotoxic, single point]
[19]
  Potency: active: 16.6 µM
[14]
  Potency: active: 14.8 µM

## N#CC[C@H](C1CCCC1)n1cc(-c2ncnc3[nH]ccc23)cn1
[1]
  Potency: inconclusive: 20.9 µM [cytotoxic, partial curve, poor fit]
[2]
  Potency: inconclusive: 26.4 µM [rising, partial curve, poor fit]
[3]
  Potency: active: 16.6 µM
[11]
  Potency: inactive
[6]
  Potency: inconclusive: 14.8 µM [cytotoxic, partial curve, poor fit]
[12]
  Potency: inconclusive: 37.2 µM [cytotoxic, single point]
[7]
  Potency: inconclusive: 0.0296 µM [cytotoxic, full curve, poor fit]
[8]
  Potency: inconclusive: 5.9 µM [cytotoxic, partial curve, poor fit]
[17]
  Potency: active: 18.7 µM
[9]
  Potency: active: 20.9 µM
[13]
  Potency: active: 6.62 µM
[10]
  Potency: active: 18.7 µM
[14]
  Potency: inconclusive: 5.26 µM [cytotoxic, partial curve]
[15]
  Potency: inconclusive: 0.0418 µM [cytotoxic, full curve]

## CCOC(=O)C(C)Oc1cccc2c(=O)n(CC(=O)Nc3ccc4c(c3)OCCO4)ccc12 (stereo not given)
[1]
  Potency: inconclusive: 1.32 µM [cytotoxic, full curve, poor fit]
[2]
  Potency: inconclusive: 1.18 µM [cytotoxic, full curve, poor fit]
[3]
  Potency: inconclusive: 0.0074 µM [rising, full curve]
[11]
  Potency: inconclusive: 37.2 µM [cytotoxic, partial curve, poor fit]
[16]
  Potency: inconclusive: 20.9 µM [cytotoxic, partial curve, poor fit]
[5]
  Potency: inconclusive: 37.2 µM [cytotoxic, single point]
[6]
  Potency: inconclusive: 26.4 µM [cytotoxic, single point]
[12]
  Potency: inconclusive: 33.2 µM [cytotoxic, single point]
[7]
  Potency: active: 9.35 µM
[8]
  Potency: inactive
[17]
  Potency: inactive
[9]
  Potency: inconclusive: 37.2 µM [cytotoxic, single point]
[19]
  Potency: inconclusive: 0.0017 µM [rising, full curve, poor fit]
[13]
  Potency: inconclusive: 33.2 µM [cytotoxic, single point]
[10]
  Potency: inconclusive: 0.0093 µM [rising, full curve, poor fit]
[14]
  Potency: inactive
[15]
  Potency: inactive

## C[C@@H](O)[C@H]1C(=O)N2C(C(=O)OCOC(=O)C(C)(C)C)=C(SC3CN(C4=NCCS4)C3)[C@H](C)[C@H]12
[1]
  Potency: inconclusive: 9.35 µM [rising, single point]
[2]
  Potency: inconclusive: 37.2 µM [cytotoxic, single point]
[3]
  Potency: inconclusive: 20.9 µM [cytotoxic, partial curve, poor fit]
[11]
  Potency: inactive
[4]
  Potency: inconclusive: 37.2 µM [cytotoxic, single point]
[16]
  Potency: inconclusive: 23.5 µM [cytotoxic, partial curve, poor fit]
[7]
  Potency: inconclusive: 0.0015 µM [rising, full curve, poor fit]
[8]
  Potency: inconclusive: 37.2 µM [cytotoxic, single point]
[17]
  Potency: inconclusive: 11.8 µM [cytotoxic, partial curve, poor fit]
[9]
  Potency: inconclusive: 37.2 µM [cytotoxic, single point]
[19]
  Potency: inactive
[13]
  viability: inactive: 111%
[10]
  Potency: inconclusive: 33.2 µM [cytotoxic, single point]
[14]
  Potency: inconclusive: 26.4 µM [cytotoxic, single point]
[15]
  Potency: inconclusive: 20.9 µM [cytotoxic, partial curve]

## C[C@]12C=CC(=O)C=C1CC[C@@H]1[C@@H]2[C@@H](O)C[C@@]2(C)[C@@H]1CC[C@]2(O)C(=O)CO
[1]
  Potency: inconclusive: 37.2 µM [cytotoxic, partial curve, poor fit]
[2]
  Potency: inconclusive: 9.35 µM [rising, full curve, poor fit]
[3]
  Potency: active: 0.166 µM
[11]
  Potency: active: 0.0743 µM
[4]
  Potency: inactive
[12]
  Potency: inactive
[7]
  Potency: inconclusive: 0.332 µM [cytotoxic, full curve, poor fit]
[8]
  Potency: active: 0.187 µM
[17]
  Potency: inconclusive: 0.0935 µM [cytotoxic, full curve, poor fit]
[9]
  Potency: inconclusive: 2.09 µM [cytotoxic, full curve, poor fit]
[19]
  Potency: inconclusive: 6.62 µM [cytotoxic, partial curve, poor fit]
[10]
  Potency: inactive
[14]
  Potency: inactive
[15]
  Potency: inactive

## O=C(Nc1ncc(SCCN2CCCC2)s1)[C@]1(c2ccc(S(=O)(=O)C3CC3)cc2)C[C@@H]1C1CCCCC1
[1]
  Potency: inconclusive: 7.43 µM [cytotoxic, full curve, poor fit]
[2]
  Potency: inconclusive: 6.62 µM [cytotoxic, partial curve, poor fit]
[3]
  Potency: active: 14.8 µM
[4]
  Potency: active: 26.4 µM
[17]
  Potency: active: 18.7 µM
[10]
  Potency: active: 8.33 µM
